In paper PMC11006229, “Structures and dynamics of Rpd3S complex bound to nucleosome” (Science Advances, 2024):
These are yes or no findings as the source states them, for the method shown. Binding seen in cells or lysates may run through a third protein. These calls come from enrichment with a bait or labelling near it, and not all partners need be listed.

Target: T1, Rco1 (S. cerevisiae, UniProt Q04779 1-684)
T1 construct: Rco1, S. cerevisiae, tagged at its chromosomal locus; NTD1/2, PHD1/2, NID (residues 311 to 332), EID (residues 333 to 376), CTD; Two copies (Rco1 and Rco1′) stand in the Rpd3S complex; source: endogenous, S. cerevisiae (Rco1-3x-Flag strain), purified with the Rpd3S complex (ANTI-FLAG M2 resin, glycerol gradient); not shown: 3x-Flag, C-terminal, kept
T1 sequence (looked up): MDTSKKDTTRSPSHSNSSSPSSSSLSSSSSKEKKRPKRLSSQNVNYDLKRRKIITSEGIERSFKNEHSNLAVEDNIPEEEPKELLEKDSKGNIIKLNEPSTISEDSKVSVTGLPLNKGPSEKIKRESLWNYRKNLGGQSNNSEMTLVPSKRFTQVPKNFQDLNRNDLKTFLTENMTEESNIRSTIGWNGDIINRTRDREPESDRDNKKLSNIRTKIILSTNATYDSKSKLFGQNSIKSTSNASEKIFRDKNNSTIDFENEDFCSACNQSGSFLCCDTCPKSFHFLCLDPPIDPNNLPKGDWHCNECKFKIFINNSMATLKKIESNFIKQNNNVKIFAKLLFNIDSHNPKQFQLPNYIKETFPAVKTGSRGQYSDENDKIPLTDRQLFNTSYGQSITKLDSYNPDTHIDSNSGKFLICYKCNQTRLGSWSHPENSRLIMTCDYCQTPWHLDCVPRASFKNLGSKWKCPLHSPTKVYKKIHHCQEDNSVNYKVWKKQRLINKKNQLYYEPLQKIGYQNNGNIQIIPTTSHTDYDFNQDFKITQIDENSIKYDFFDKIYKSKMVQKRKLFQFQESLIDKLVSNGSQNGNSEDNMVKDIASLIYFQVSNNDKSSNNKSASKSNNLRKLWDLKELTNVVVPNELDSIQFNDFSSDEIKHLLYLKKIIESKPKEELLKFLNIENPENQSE
Test: affinity purification with mass spectrometry; Rco1-3x-Flag captured from S. cerevisiae lysate (350 mM NaCl) on ANTI-FLAG M2 resin, eluted with FLAG peptide; components separated by SDS-PAGE and confirmed by mass spectrometry

B1: Ume1 (protein, UniProt Q03010 1-460)
chain: MSTLDIAEDNKIKNEEFKIWKKSIPSLYQHISSLKPIFGSGVDESPSTLRSIVFTNDSSCNKSKGVLSVPLLYSQGSEIFEVDCIVPLGLHYKKPESISEPLVQPDYTMESQKVEQTVLIPKWEFKGETIAKMIYVDNSEINVKVIALSTNGSLAWFREGVKSPVYTMMEPSTSLSSASSGNQNKPCVDFAISNDSKTLTVTKEKHLDNENATIKLIDNSGKIGEVLRTIPVPGIKNIQEIKFLNNQIFATCSDDGIIRFWGNEIGKKPLWILNDSLDGKTTCFAASPFVDTLFMTGTSGGALKVWDIRAVIALGDADAELNINQGHNKVNELFKVHHFYSEQVSKIEFSSISPMEVVTIGGLGNVYHWNFEPVFAIYNEIHEDFQGIISDELEAESMAFYHTEGCRREIGENNKVNTVAYHKYIEDLVATVDSDGLLTVYKPFTGKVLDGSREVGAAKS
B1 was tested, and the binding was “binds”.
